Data from paper PMC10227054.

Columns and labels:
[1] = target: T1, Gst-CLCA (clathrin light chain A) (UniProt O08585); assay: pull-down; lysates of HEK293T cells transfected for 48 h with HA-tagged Otof-C or Otof-S, pulled down with purified GST-tagged bait; immunoblot with antibodies against HA and GST; also tested at different Ca2+ concentrations (Supplementary Fig. 9); only the target purified
T1 sequence: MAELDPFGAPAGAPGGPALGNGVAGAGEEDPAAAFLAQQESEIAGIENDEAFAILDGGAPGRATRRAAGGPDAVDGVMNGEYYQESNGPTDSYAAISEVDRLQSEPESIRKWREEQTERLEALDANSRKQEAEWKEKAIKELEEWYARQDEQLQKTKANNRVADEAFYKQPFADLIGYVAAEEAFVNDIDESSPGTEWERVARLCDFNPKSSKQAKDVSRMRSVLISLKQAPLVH

[2] = target: T1, Gst-CLCA (clathrin light chain A); assay: pull-down; GST-tagged bait on glutathione-Sepharose incubated with purified His6-tagged otoferlin fragments, 4 h at 4 °C, 20 mM Tris-Cl, 100 mM NaCl, 5 mM MgCl2, 1 mM EDTA, 1 mM DTT, 0.5% NP-40, pH 7.6; Coomassie gel and immunoblot against His; with calcium: 20 mM Tris-Cl, 100 mM NaCl, pH 7.6 at different calcium concentrations; both purified

| Substance | binding [1] | binding [2] |
| --- | --- | --- |
| otoferlin canonical isoform (Otof-C), HA-tagged (mouse) | binds |  |
| otoferlin fragment C2A (1-192 AA) (mouse) (domain or fragment) |  | binds |
| otoferlin fragment C2ABC (1-616 AA) (mouse) (domain or fragment) |  | binds |
| otoferlin fragment C2BC (193-616 AA) (mouse) (domain or fragment) |  | binds |

No constants are given. Whether binding was seen depends on the method and setting. Binding can be weak; no strength is given. Where a sequence is shown, tags or fusion partners need not be part of it. For some of these results: Binding seen in cells or lysates may run through a third protein.
